Assay results reported in the supplement of paper PMC10338343.
± gives the standard deviation. The list shows a part of the results, in another mix than the full data. Many of these values have a large error.

tested on: MILI (PIWIL2) piRISC loaded with piRNA #1 (26 nt); assay: pre-steady-state target cleavage rate (min^-1); MIWI and MILI are mouse PIWI proteins and EfPiwi is from a freshwater sponge; tags in brackets are library labels; higher = faster piRNA-guided slicing of the target; conditions: guide: piRNA #1 5'p-UGAGGUAGUAGGUUGUAUAGUAUCCA; auxiliary factor: 500 nM mouse GTSF1
Outline: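 The pre-steady-state cleavage rate was obtained by Cleave-'n-Seq with a burst-and-steady-state fit. A transcribed, DNA-blocked target RNA library (0.1 nM) was mixed with 1 nM active affinity-purified piRISC carrying one synthetic guide, with or without 500 nM GTSF1 partner protein, in HEPES–potassium acetate buffer at 33 °C for 0–8 or 0–960 min. Uncleaved targets were sequenced and normalised to depth and to weakly complementary targets, with three trials pooled and k3 capped at 0.0001 min^-1.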

| Sequence | pre-steady-state target cleavage rate |
| --- | --- |
| GGAGACCUAUGAUAUGAACCUUACUACCUCA | 0.000167 ± 0.02 |
| GGAGACGAUACUAAACAACCUACUACCUGA | 0.124 ± 0.02 |
| GGAGACGAUACUAUACAACCUACUUCCACA | 0.0194 ± 0.0082 |
| GGAGACGUUACUAUACAACGUACUACCUCA | 0.0206 ± 0.0027 |
| GGAGUGGAUUCUAUACAACCUUCUACCUCA | 0.00777 ± 0.0028 |
| GGAGACCUAUGAAUACUUGCUACUACCUCA | 0.000154 ± 0.018 |
| GGAGACCUAACUAUACAACCUACACCUCA | 0.00118 ± 0.011 |
| GGAGACCUAUGAAUAGAACCUACUACCUGA | 0.00023 ± 0.014 |
| GGAGACGAUUCUAUACAAGCUACUACCUCA | 0.239 ± 0.01 |
| GGAGACGAUACUAUACAACCAACUAGCUCA | 0.00312 ± 0.0048 |
| GGAGACCUUACAAAACAACCUACUACCUCA | 0.00897 ± 0.0036 |
| GGAGACCUAUGAUUACAACCUACUUGGAGA [g7:g17:cont:t1A] | 0.000576 ± 0.0089 |
| GGAGACCUAUGAUAUGUACCUAGUACCACA | 0.00024 ± 0.016 |
| GGAGACCUAUGAUUAGAACCAACUACCUCA | 0.000252 ± 0.013 |
| GGAGUGGUUACUAUACAUCCUACUACCUCA | 0.295 ± 0.014 |
| GGAGAGGAUACUAUACAACUCUACUACCUCA | 0.00124 ± 0.0047 |
| GGAGACCAUACUAUAAACCUACUACCUCA | 0.0199 ± 0.0046 |
| GGAGACCUUACUACUACAACCUACUACCUCA | 0.107 ± 0.011 |
| GGAGACGAUACUAUACAACCUACUACAUCA | 0.0978 ± 0.015 |
| GGAGACCAUACUAUACAACCAUGAUGGAGA [g11:g23:cont:t1A] | 0.000425 ± 0.014 |

| Sequence | pre-steady-state target cleavage rate |
| --- | --- |
| GGAGACGAUACUAUACAACCUACUGACCUCA | 0.118 ± 0.015 |
| GGAGACCUAACUAUACAGCCUACUACCUCA | 0.0605 ± 0.018 |
| GGAGACCUAUGAUAACAACCUAUACCUCA | 0.00058 ± 0.01 |
| GGAGACCUAUGAAUACAACCUCACUACCUCA | 0.00378 ± 0.0031 |
| GGAGACCUAUGAUUACAACCUACUUGCUCA | 0.00176 ± 0.0048 |
| GGAGACCUAUCUAUUCAACCUUCUACCUCA | 0.0069 ± 0.0028 |
| GGAGACCUAUCUAUACAACCUACUUGGUCA | 0.001 ± 0.0061 |
| GGAGACCUUACUAUUCAACCUACUACCUCA | 0.15 ± 0.012 |
| GGAGAGGAUACUAUAGAACCUACUACCUGA | 0.0217 ± 0.005 |
| GGAGACCUAUGAAUAGUACCUACUACCUCA | 0.000242 ± 0.0072 |
| GGAGACCAUACUACUACAACCUACUACCUCA | 0.137 ± 0.015 |
| GGAGACCUAUGAUAUCUACCUACUACGUCA | < 0.0001 |
| GGAGAGGAUACUAUACAACCUACUUCCUGA | 0.00168 ± 0.0042 |
| GGAGAGGAUACUAUACAACCUACAACCUGA | 0.00144 ± 0.0038 |
| GGAGAGGAUACUAUUGUACCUACUACCUCA | 0.131 ± 0.0096 |
| GGAGAGGAUACUAUACAACGCUACUACCUCA | 0.00299 ± 0.0026 |
| GGAGACCUAUGAUAUGUACCUACUACCUCU [g2:g13:cont:t1U] | 0.000166 ± 0.014 |
| GGAGAGGAUACUAUACAACCUUCUUCCUCA | 0.00104 ± 0.0056 |
| GGAGACGAUACUAUACAACCUACUAACCUCA | 0.194 ± 0.02 |
| GGAGAGGAAACUAUACUACCUACUACCUCA | 0.239 ± 0.025 |

Fetched one by one from the entries so far, 3 records:

| Sequence | pre-steady-state target cleavage rate |
| --- | --- |
| GGAGACCUAUGAAUAGAACCUACUACCUGA | 0.00023 ± 0.014 |
| GGAGACCUAUGAAUACUUGCUACUACCUCA | 0.000154 ± 0.018 |
| GGAGACCUUACUACUACAACCUACUACCUCA | 0.107 ± 0.011 |
